Binding data for four molecules are collected here from US20200239570A1 (CRESCENDO BIOLOGICS, published 2020).

Sequences of proteins named here, by UniProt entry; tags and fusion partners are left off. A change or cut given only in a name is not applied to a line headed by its entry.
UniProt Q15116: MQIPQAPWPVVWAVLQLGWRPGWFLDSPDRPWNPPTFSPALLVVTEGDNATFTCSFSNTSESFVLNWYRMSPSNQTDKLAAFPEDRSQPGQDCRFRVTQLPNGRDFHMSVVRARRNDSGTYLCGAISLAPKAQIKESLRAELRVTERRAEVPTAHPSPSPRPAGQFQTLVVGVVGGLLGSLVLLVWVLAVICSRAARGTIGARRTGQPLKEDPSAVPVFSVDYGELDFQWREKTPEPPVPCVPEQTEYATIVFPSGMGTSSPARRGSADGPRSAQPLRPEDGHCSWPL

Assay [1] has as its target human PD-1 expressed on cells (CHO human PD-1 cells) (human) (UniProt Q15116). The experiment in a line: FMAT binding assay on CHO human PD-1 cells, detection by anti-His.
The target is the same in assay [2]. Nature of the assay: FMAT, His-tagged VH on CHO human PD-1 cells.
The target of assay [3] is cynomolgus PD-1 (Acro Biosystems cat no. PD1-C5254) (cynomolgus) (UniProt B0LAJ3). Nature of the assay: HTRF binding assay. On the technique in general: TR-FRET usually uses a lanthanide donor and a delayed reading to cut background.
Assay [4] deals with huPD-1 extracellular domain (PepScan peptide arrays) (human) (UniProt Q15116). Nature of the assay: PepScan ELISA, linear and constrained PD-1 peptide arrays, 1.1 monovalent.

Where a chain is given by its changes, count along the chain named. These are yes or no findings as the source states them, for the method shown. Some results given as binding are weak or reduced against the parent protein; the word gives no strength.

B1: 1.21 (VHH)
VHH: EVQLVESGGGLVQPGRSLRLSCAASGFTFDDYAMHWVRQAPGKDLEWVSGISWNGGSMGYAASVKGRFTISRDNAKNSLYLQMNSLRAEDTALYYCVREKGPGLTGSTADYYGLDVWGQGTMVTVSS
notes: also called VH single domain antibody 1.21; Humabody VH 1.21
For B1, the binding result in assay [1] is “binds”.

B2: Humabody 1.20 (VHH)
VHH: B1 VHH with A62D
For the molecule B2, in assay [2], the binding entry is listed as “binds”.

B3: VH single domain antibody 1.1 (VHH)
VHH: B1 VHH with V5L, L11S, Y32H, D44G, G55S, A62D, G66D, N77S
notes: human VH single domain antibody (Humabody), purified through its C-terminal His tag; also called Humabody 1.1; clone 1.1
With B3, the binding entry in assay [3] and in assay [4] was “binds” throughout.

B4: VH single domain antibody 1.2 (VHH)
VHH: B1 VHH with R98K, E99D, T105I, M122T
notes: human VH single domain antibody
Turning to B4, the binding result in assay [3] is “binds”.
